Assay results taken from PubChem BioAssay AID1347076 (National Center for Advancing Translational Sciences (NCATS), 2019).
Screen size: about 400,000 compounds; about 13,000 (3.2%) were called active. This list was built around the results that the source calls inconclusive (neither active nor inactive); the mix of calls is not that of the screen. Calls come from the whole dose curve; as a rule, active = well fitted cell-killing curve with a large enough effect; inconclusive = small, poorly fitted or top-dose-only effect, or effect the other way; inactive = flat fitted curve, though single readings scatter. Potencies of inconclusive entries are doubtful fits and often do not repeat.

assay: qHTS assay for MDR1-selective chemotherapeutics: Primary screen using the drug-selected MDR subline cells KB-V1; conditions: KB-V1 MDR cells viability, CellTiter-Glo, 72 h; activity change, negative = cytotoxicity: at 46.1 µM (top of the series); note: nearly all actives have a fitted effect of over 60% in size
Outline: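 KB-V1, DMEM (no phenol red) + 10% FBS; cpd pin-transferred, titration series; 72 h, 37 degrees C; CellTiter-Glo, luminescence. Data normalized, curve-fit.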
% is set by controls: 0 for no effect and ±100 for the full control effect; potency is the fitted concentration of half-maximal effect.

| Compound | Potency | activity change, negative = cytotoxicity |
| --- | --- | --- |
| Cc1ccc(-c2nc3c(c(SCC(=O)Nc4cccc(C(=O)O)c4)n2)Cc2cccc(C)c2O3)cc1 | inconclusive: 29.1 µM [rising, single point] | – |
| CCSc1nnc(SCC(=O)Nc2cc(C)on2)s1 | inactive | – |
| CCC(C)NCCOCCOc1ccc(Br)cc1C (configuration not stated) | active: 20.6 µM | – |
| COCc1ccc(C(=O)N2CCCC(C(=O)c3ccc(SC)cc3)C2)s1 (configuration not stated) | inactive | – |
| CC(=NCc1ccco1)c1c(C(F)(F)F)[nH]n(-c2nc3ccccc3s2)c1=O | active: 9.2 µM | – |
| Cc1ccc(CCNC(=O)C2CCN(S(=O)(=O)c3ccc4c(c3)oc(=O)n4C)CC2)cc1 | inconclusive: 23.1 µM [rising, single point] | – |
| COc1ccccc1C(=O)NC(=O)COC(=O)c1oc2ccccc2c1C | inactive | – |
| Cc1ccc2nc(NC(=O)C3CCN(S(=O)(=O)c4cc([N+](=O)[O-])ccc4Cl)CC3)sc2c1 | inconclusive: 9.2 µM [cytotoxic, partial curve] | – |
| NS(=O)(=O)c1cccc(NC(=O)c2ccno2)c1 | inconclusive: 3.26 µM [rising, full curve] | – |
| COC(=O)c1ccc(-n2cncn2)c([N+](=O)[O-])c1 | inconclusive: 29.1 µM [rising, single point] | – |
| O=C(NNC(=O)C12CC3CC(CC(C3)C1)C2)[C@@H]1C[C@H]1c1ccccc1 | inactive | – |
| Cc1ccc(Nc2ccc(S(=O)(=O)N3CCOCC3)cc2[N+](=O)[O-])c(C)c1 | inconclusive: 18.4 µM [cytotoxic, partial curve] | – |
| CCNc1ccc(C(=O)OCC(=O)N2c3ccccc3NC(=O)C2(C)C)cc1[N+](=O)[O-] | inconclusive: 7.31 µM [cytotoxic, partial curve] | – |
| Cc1ccn2c(NC3CCCC3)c(-c3ccccn3)nc2c1 | inconclusive: 1.64 µM [cytotoxic, full curve] | – |
| c1cc2nc(C34CC5CC(CC(C5)C3)C4)[nH]c2cn1 | inconclusive: 25.9 µM [cytotoxic, single point] | – |
| CSc1nc2ccc(NC(=O)C3=NNC(=O)CC3)cc2s1 | inconclusive: 20.6 µM [cytotoxic, single point] | – |
| ONC(=NCc1ccccc1)c1ccccc1 | inconclusive: 23.1 µM [cytotoxic, single point] | – |
| CCCCCN(C(=O)CCC(=O)OCCOc1cccc(C)c1)c1c(N)n(CCCC)c(=O)[nH]c1=O | inconclusive: 16.4 µM [cytotoxic, single point] | – |
| O=C(NNC(=O)c1ccc2ccccc2c1)c1ccc(Cl)c(Cl)c1 | inactive | – |
| CC(=O)N1C=CN(C(C)=O)C(c2cn(C)c3ccccc23)C1c1cn(C)c2ccccc12 (configuration not stated) | active: 23.1 µM | – |
| CC(OC(=O)C1CCCCC1)C(=O)Nc1cccc([N+](=O)[O-])c1 (configuration not stated) | inconclusive: 29.1 µM [rising, single point] | – |
| CCc1ccc(NC(=O)C2CC(=O)Nc3ncnn32)cc1 (configuration not stated) | inactive | – |
| CCN(CC)S(=O)(=O)c1cccc(NC(=O)CN(C)C2CCCCC2)c1 | inconclusive: 4.61 µM [cytotoxic, partial curve] | – |

| Compound | Potency | activity change, negative = cytotoxicity |
| --- | --- | --- |
| Cc1ccc2nc(CN3CCN(S(=O)(=O)c4ccc(F)cc4)CC3)oc2c1 | inactive | – |
| CC1CCCCN1CCCNC(=O)Cn1c(=O)c2cccn2c2ccccc21 (configuration not stated) | inconclusive: 23.1 µM [rising, single point] | – |
| Cc1cccc(NC(=O)CN2CCN(C(=O)c3oc4c(Cl)cccc4c3C)CC2)c1C | inconclusive: 29.1 µM [cytotoxic, single point] | – |
| CC(C)(C)n1ncc2c(=O)n(Cc3c(Cl)cccc3Br)cnc21 | inconclusive: 16.4 µM [cytotoxic, partial curve, poor fit] | – |
| Oc1cccc(Nc2nc(-c3ccccc3Cl)nc3ccccc23)c1 | inconclusive: 16.4 µM [cytotoxic, single point] | – |
| CCOC(=O)N1CCN(C(=O)c2sc3nc(-c4ccc(F)cc4)cn3c2C)CC1 | active: 7.31 µM | – |
| COc1cccc(NC(=O)CSC(N)=O)c1 | – | inconclusive: 33.9% |
| CC1CCCN(C(=O)c2ccc(Br)c(S(=O)(=O)N3CCOCC3)c2)C1 (configuration not stated) | inactive | – |
| O=C(c1ccc(Br)s1)N1CCN(c2ccccn2)CC1 | inconclusive: 14.6 µM [cytotoxic, partial curve] | – |
| CCOC(=O)c1ccc(NC(=O)CCSCCc2ccccn2)cc1 | inconclusive: 29.1 µM [rising, single point] | – |
| O=C(/C=C/c1ccco1)Oc1cc(Br)cc(/C=N/NC(=O)c2ccccc2O)c1 | inconclusive: 3.26 µM [cytotoxic, full curve] | – |
| O=[N+]([O-])c1nccn1CCCCCCCCCCCN1CCOCC1 | inconclusive: 0.58 µM [rising, full curve] | – |
| Cc1cccc(-c2cc3nc4c(c(N5CCOCC5)n3n2)CCCC4)c1 | inconclusive: 29.1 µM [cytotoxic, single point] | – |
| CCOC(=O)c1c(S(=O)(=O)NCc2ccco2)c(C)n(C)c1C | inactive | – |
| Cc1c(NC(=O)CN2CCN(C(c3ccccc3)c3ccccc3)CC2)c(=O)n(-c2ccccc2)n1C | inconclusive: 0.206 µM [rising, full curve] | – |
| Cc1ccc2c(=O)cc(C(=O)Nc3nc4ccc(Cl)cc4s3)oc2c1 | inconclusive: 20.6 µM [rising, single point] | – |
| O=C(c1ccccc1)n1c(=S)nc2ccccn21 | inconclusive: 16.4 µM [cytotoxic, single point] | – |
| Cc1nn(CC(=O)NC2C(=O)N3C(C(=O)O)=C(CSc4nnnn4C)CSC23)cc1Br (configuration not stated) | inconclusive: 29.1 µM [rising, single point] | – |
| Cc1cccn2c(Nc3ccccc3)c(-c3ccccn3)nc12 | inconclusive: 23.1 µM [cytotoxic, partial curve, poor fit] | – |
| Cc1noc(/C=C/c2ccccc2F)c1S(=O)(=O)N1CCC(C(=O)N2CCN(C)CC2)CC1 | – | inconclusive: 10.2% |
| COc1ccc(-c2oc3ccc(-c4ccc5c(c4)OCO5)cc3c2C#CC2(O)CCCCC2)cc1 | inconclusive: 16.4 µM [cytotoxic, single point] | – |
| CC(C)(C)c1ccc(C(=O)CC(=O)c2cc(Cl)ccc2O)cc1 | active: 2.59 µM | – |
| COc1ccc2nc(-c3ccccc3)cc(C(=O)OCC(=O)N3CCCCC3)c2c1 | inconclusive: 10.3 µM [cytotoxic, partial curve, poor fit] | – |

Laid out differently: entries from further up.
Compound	Potency	activity change, negative = cytotoxicity
Cc1ccc2c(=O)cc(C(=O)Nc3nc4ccc(Cl)cc4s3)oc2c1	inconclusive: 20.6 µM [rising, single point]	–
O=C(c1ccccc1)n1c(=S)nc2ccccn21	inconclusive: 16.4 µM [cytotoxic, single point]	–
Cc1nn(CC(=O)NC2C(=O)N3C(C(=O)O)=C(CSc4nnnn4C)CSC23)cc1Br (configuration not stated)	inconclusive: 29.1 µM [rising, single point]	–
Cc1cccn2c(Nc3ccccc3)c(-c3ccccn3)nc12	inconclusive: 23.1 µM [cytotoxic, partial curve, poor fit]	–
Cc1noc(/C=C/c2ccccc2F)c1S(=O)(=O)N1CCC(C(=O)N2CCN(C)CC2)CC1	–	inconclusive: 10.2%

Further entries follow.

| Compound | Potency | activity change, negative = cytotoxicity |
| --- | --- | --- |
| O=C(CSc1nnc(-c2ccc(Cl)cc2)n1Cc1ccco1)Nc1ccc2c(c1)OCCO2 | active: 4.11 µM | – |
| Cn1c(SC(C(=O)Nc2ccc(F)cc2)c2ccccc2)nc2ccccc21 (configuration not stated) | inconclusive: 32.6 µM [cytotoxic, single point] | – |
| COc1ccc(CCNc2nc3c(c(=O)n(C)c(=O)n3C)n2Cc2ccccc2Cl)cc1OC | inconclusive: 0.461 µM [cytotoxic, full curve] | – |
| CCOC(=O)C1=CCN(S(=O)(=O)c2ccccc2Cl)C1c1cccc(Br)c1 (configuration not stated) | inconclusive: 23.1 µM [cytotoxic, single point] | – |
| O=C(NCCc1ccccc1)c1cc(-c2ccc(Cl)c(Cl)c2)on1 | inactive | – |
| CCC(C)Sc1ccc(-c2nc3ccc(C)cn3c2NCc2ccccc2)cc1 (configuration not stated) | inconclusive: 4.61 µM [cytotoxic, full curve] | – |
| OC(CNCc1ccccn1)c1ccccc1 (configuration not stated) | inconclusive: 13 µM [rising, partial curve, poor fit] | – |
| COc1ccc(N2CCN(S(=O)(=O)c3ccc(OC)c(C(=O)N4CCCCC4)c3)CC2)cc1 | inconclusive: 4.61 µM [cytotoxic, full curve] | – |
| CCSC1(SCC)N=C(N)C2(C#N)C(c3ccc(F)cc3)C12C#N (configuration not stated) | inconclusive: 20.6 µM [cytotoxic, single point] | – |
| CCCOc1ccc(-c2cnc(N)s2)cc1 | inconclusive: 20.6 µM [rising, partial curve, poor fit] | – |
| CN(C)/C=N/c1ncc(C(=O)c2ccc3ccccc3c2)s1 | inconclusive: 23.1 µM [cytotoxic, partial curve] | – |
| Cc1cc(C)c(NC(=O)CNC(=O)c2cc(C3CC3)nc3c2cnn3C(C)C)c(C)c1 | inconclusive: 18.4 µM [cytotoxic, single point] | – |
| Cc1ccc(-c2noc(CCC(=O)NCC3CCN(Cc4cccc(C)c4)CC3)n2)cc1 | inconclusive: 3.66 µM [cytotoxic, partial curve, poor fit] | – |
| Cc1nnc(C)n1/N=C/c1c(O)ccc2ccccc12 | inconclusive: 4.11 µM [cytotoxic, full curve] | – |
| CCC1CCCCN1C(=O)c1ccc(OC)c(OC2CCN(C(C)=O)CC2)c1 (configuration not stated) | – | inconclusive: -26.5% |
| O=C(Nc1ccc(S(=O)(=O)N(Cc2ccccc2)c2ccccc2)cc1)c1ccc(F)cc1 | inconclusive: 8.2 µM [cytotoxic, partial curve] | – |
| CCOc1cc(CNc2ccc3c(c2)OCCO3)cc(Br)c1OC | active: 2.06 µM | – |
| CN(C)S(=O)(=O)c1cccc(CSCc2cccc(S(=O)(=O)N(C)C)c2)c1 | inconclusive: 18.4 µM [cytotoxic, partial curve] | – |
| COc1ccc(Cl)cc1NC(=O)CN(C)CC(=O)Nc1ccc2c(c1)OCO2 | inconclusive: 5.17 µM [cytotoxic, partial curve] | – |
| C/C(=N\NC(=O)C1CC1)c1ccc2c(c1)OCCO2 | inconclusive: 29.1 µM [cytotoxic, single point] | – |
| CCC(C)n1c(SCC(=O)NC(=O)c2cccn2C)nc2ccccc2c1=O (configuration not stated) | inconclusive: 7.31 µM [cytotoxic, partial curve] | – |
